This is an account of results in the supplement of paper PMC10849652.

The chains behind the UniProt entries cited, without tags or fusion partners. Where a name states a change or a piece, a line headed by the entry shows the natural chain unless it says otherwise.
UniProt P55145: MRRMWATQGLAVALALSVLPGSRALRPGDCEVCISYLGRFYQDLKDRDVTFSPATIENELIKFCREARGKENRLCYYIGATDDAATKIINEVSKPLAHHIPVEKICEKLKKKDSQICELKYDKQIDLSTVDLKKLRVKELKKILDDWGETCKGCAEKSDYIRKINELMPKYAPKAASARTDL
UniProt Q9NX47: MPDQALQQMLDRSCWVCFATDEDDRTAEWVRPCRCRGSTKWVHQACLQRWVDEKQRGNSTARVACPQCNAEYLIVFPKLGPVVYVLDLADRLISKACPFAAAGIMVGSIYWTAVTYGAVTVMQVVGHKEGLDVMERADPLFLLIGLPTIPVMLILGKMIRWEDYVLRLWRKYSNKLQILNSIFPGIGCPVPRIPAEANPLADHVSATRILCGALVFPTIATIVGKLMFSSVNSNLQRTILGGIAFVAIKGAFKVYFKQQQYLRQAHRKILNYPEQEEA
UniProt Q14244: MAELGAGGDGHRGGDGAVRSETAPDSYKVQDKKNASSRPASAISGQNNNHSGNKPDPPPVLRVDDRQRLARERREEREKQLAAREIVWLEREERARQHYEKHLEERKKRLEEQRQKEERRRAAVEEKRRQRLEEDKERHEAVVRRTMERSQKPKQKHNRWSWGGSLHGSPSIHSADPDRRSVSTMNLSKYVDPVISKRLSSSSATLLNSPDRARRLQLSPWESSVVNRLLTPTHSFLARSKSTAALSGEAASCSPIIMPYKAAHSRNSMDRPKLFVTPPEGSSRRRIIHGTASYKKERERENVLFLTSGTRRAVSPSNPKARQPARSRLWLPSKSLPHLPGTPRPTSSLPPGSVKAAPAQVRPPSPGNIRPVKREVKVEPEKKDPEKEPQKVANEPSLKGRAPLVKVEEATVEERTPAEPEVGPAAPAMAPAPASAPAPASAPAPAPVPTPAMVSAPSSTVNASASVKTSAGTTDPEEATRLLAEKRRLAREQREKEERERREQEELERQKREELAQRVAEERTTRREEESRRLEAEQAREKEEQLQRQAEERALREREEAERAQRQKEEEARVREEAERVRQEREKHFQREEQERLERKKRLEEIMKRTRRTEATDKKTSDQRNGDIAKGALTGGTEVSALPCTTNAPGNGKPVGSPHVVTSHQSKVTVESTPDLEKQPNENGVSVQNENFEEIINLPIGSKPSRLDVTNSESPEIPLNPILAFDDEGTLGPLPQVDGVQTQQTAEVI
UniProt Q9UKM7: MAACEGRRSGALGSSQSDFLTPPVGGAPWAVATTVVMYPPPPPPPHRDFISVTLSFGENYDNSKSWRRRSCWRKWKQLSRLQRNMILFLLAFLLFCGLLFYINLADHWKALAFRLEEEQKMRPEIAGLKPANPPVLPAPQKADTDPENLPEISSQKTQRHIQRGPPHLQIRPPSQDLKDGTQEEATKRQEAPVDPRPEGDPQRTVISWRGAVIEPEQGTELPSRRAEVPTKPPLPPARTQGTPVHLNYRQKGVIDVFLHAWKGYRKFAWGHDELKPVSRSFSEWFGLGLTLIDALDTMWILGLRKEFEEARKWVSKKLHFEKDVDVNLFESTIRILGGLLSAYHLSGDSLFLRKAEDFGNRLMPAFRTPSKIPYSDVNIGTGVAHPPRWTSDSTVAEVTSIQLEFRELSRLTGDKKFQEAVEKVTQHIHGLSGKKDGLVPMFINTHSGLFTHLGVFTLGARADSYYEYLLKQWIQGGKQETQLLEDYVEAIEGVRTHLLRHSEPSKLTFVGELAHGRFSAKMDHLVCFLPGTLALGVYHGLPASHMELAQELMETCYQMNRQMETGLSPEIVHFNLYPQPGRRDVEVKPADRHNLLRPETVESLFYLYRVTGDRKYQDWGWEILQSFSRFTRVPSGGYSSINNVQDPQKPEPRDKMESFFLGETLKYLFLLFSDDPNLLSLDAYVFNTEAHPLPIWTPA
UniProt Q15013: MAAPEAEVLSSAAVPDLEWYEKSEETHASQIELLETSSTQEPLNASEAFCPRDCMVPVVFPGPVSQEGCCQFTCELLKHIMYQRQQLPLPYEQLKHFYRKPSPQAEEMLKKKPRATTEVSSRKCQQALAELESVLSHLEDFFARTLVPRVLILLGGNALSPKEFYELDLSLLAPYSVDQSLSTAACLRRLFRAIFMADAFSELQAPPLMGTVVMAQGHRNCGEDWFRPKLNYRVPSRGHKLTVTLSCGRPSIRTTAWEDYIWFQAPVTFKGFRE
UniProt Q15691: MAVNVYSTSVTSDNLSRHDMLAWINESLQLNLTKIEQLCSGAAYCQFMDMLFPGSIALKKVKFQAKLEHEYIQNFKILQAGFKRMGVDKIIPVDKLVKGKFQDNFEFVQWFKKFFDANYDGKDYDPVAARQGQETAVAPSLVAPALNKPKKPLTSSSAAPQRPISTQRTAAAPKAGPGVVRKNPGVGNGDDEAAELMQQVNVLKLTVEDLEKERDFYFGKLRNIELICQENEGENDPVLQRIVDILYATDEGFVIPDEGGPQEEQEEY
UniProt P62310: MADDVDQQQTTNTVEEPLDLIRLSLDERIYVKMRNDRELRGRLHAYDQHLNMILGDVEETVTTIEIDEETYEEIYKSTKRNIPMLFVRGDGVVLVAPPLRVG
UniProt Q9UK45: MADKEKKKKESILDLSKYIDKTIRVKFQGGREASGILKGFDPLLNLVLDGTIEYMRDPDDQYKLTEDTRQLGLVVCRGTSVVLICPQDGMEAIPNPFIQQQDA
UniProt P78559: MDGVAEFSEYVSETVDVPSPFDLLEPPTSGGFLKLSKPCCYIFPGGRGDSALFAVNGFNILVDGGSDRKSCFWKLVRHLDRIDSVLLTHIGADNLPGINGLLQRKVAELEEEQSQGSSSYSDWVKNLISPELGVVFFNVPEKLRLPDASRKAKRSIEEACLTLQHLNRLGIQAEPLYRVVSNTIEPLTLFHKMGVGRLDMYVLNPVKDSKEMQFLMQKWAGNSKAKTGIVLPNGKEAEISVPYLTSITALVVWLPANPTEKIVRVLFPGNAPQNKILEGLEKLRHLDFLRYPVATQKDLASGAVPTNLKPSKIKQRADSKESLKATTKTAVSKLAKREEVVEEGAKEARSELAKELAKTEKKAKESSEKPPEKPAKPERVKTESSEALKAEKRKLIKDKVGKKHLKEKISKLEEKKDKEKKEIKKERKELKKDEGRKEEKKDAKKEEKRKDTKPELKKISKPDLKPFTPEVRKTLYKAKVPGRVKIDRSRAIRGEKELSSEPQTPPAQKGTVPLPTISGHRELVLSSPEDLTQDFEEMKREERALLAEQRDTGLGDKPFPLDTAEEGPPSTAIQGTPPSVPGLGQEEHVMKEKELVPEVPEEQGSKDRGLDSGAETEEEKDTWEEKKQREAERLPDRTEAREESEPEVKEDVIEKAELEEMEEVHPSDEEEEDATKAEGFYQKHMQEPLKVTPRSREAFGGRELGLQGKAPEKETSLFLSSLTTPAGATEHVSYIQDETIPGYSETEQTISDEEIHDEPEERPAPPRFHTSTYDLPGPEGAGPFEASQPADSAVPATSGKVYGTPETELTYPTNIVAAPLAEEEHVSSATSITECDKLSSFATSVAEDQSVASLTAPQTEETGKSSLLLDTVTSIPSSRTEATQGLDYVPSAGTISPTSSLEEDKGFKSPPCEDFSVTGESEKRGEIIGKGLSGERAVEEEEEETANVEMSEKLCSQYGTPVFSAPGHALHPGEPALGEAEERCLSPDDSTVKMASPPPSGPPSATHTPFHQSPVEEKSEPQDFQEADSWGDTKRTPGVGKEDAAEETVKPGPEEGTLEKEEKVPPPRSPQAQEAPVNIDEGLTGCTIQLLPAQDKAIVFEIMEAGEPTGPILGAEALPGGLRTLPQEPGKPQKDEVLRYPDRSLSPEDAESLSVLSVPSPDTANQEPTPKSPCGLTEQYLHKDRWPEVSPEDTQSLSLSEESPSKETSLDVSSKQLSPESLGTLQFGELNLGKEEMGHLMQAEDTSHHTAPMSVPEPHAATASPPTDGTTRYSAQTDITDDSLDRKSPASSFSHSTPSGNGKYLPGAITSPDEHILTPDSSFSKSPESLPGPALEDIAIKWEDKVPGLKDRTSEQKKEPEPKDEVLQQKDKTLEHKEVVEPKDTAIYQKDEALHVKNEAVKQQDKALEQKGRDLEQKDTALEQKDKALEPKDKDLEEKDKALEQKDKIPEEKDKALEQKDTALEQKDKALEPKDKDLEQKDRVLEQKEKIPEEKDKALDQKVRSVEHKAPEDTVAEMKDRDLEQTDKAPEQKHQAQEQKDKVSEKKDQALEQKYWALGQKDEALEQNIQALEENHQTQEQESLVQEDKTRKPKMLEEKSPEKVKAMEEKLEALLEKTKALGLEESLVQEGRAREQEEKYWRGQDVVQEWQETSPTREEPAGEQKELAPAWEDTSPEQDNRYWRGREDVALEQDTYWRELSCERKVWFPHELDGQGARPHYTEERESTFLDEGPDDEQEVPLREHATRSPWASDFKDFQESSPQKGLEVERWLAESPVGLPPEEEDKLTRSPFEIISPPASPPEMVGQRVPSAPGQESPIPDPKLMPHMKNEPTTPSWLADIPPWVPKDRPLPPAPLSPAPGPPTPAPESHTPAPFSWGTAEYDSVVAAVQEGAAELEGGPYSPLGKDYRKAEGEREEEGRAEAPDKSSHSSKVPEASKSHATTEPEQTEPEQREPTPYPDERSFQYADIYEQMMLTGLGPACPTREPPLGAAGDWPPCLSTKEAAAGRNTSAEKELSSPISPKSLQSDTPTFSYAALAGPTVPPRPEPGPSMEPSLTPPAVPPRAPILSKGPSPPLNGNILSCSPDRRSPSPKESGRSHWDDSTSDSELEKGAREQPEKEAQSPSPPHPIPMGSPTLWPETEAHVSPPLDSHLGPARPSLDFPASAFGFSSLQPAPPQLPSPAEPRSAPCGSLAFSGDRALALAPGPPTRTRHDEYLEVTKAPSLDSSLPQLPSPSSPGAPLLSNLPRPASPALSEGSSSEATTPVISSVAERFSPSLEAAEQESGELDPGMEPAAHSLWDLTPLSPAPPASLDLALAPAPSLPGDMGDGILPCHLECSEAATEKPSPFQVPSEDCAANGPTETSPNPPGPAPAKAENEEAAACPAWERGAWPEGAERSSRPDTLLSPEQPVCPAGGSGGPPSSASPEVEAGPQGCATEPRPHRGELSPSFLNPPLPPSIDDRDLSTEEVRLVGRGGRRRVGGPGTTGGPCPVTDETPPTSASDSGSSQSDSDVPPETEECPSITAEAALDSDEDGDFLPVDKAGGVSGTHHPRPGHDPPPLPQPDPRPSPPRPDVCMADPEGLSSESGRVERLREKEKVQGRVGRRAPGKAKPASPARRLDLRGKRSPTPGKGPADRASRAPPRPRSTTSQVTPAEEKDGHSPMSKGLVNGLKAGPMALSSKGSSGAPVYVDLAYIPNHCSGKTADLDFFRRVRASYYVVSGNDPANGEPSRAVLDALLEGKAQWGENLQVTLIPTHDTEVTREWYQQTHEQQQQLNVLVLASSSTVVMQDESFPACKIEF
UniProt P62312: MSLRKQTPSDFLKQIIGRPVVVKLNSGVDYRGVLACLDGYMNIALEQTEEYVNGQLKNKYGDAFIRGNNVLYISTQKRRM
UniProt Q8N5G2: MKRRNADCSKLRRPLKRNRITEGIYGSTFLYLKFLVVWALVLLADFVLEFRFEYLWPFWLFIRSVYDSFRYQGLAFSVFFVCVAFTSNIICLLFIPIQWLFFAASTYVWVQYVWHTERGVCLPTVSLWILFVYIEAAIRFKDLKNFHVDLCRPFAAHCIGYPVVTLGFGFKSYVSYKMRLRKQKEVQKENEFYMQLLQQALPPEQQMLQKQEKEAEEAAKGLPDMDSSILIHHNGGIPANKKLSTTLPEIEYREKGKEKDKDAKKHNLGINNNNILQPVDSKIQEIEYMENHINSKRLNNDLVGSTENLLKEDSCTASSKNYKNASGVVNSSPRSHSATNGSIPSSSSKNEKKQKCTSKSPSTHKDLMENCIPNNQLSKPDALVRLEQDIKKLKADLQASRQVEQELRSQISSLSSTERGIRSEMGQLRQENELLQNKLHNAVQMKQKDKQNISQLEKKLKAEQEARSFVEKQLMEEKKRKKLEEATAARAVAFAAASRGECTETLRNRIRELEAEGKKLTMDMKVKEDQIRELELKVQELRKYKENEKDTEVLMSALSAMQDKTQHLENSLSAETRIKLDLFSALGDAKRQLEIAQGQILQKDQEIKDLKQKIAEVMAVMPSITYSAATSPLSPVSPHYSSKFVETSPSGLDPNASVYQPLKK

This is one part of the list.

Compound in the first test: CCCCN(Cc1ccc(C(=O)NO)cc1)C(=O)Nc1ccccc1 [Nexturastat A]
Description: log2 fold change, soluble protein after heating vs DMSO (PISA); higher = thermal stabilisation; K562 cells, 10 uM, 30 min; active = over 0.2 and 3.5 SD of the protein, either way, in both replicates (recomputed). The procedure, abridged: (§1)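 Thermal stability values are relative to control samples and come from duplicates. They are expressed as log2 fold changes. For measurement, K562 cells (2×10^6 cells/mL) received 10 μM compound for 30 min, and aliquots were heated for 3 min over 48°C-58°C, pooled, and extracted at 4°C in PBS with 0.5% NP-40. Soluble protein, the supernatant after 21,000xg for 90 min, was quantified by TMTpro 16plex LC-MS/MS with equalised channel sums.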
In the case of MALSU1 (UniProt Q96EH3), the log2 fold change is inactive: 0.019.

MANF (UniProt P55145): the log2 fold change was inactive: -0.11.

For MARCHF5 (UniProt Q9NX47), the log2 fold change is inactive: 0.003.

Turning to MAP7 isoform 7 (UniProt Q14244), the log2 fold change was inactive: 0.217.

With MAN1B1 (UniProt Q9UKM7), the log2 fold change is inactive: -0.013.

For MAD2L1BP isoform 3 (UniProt Q15013), the log2 fold change is inactive: -0.073.

For the target MAPRE1 (UniProt Q15691), the log2 fold change was inactive: -0.135.

Take LSM3 (UniProt P62310): the log2 fold change is inactive: 0.025.

Consider LYAR (UniProt Q9NX58), for which the log2 fold change is inactive: 0.267.

For LSM7 (UniProt Q9UK45), the log2 fold change was inactive: -0.073.

Compound in a further test: CCCS(=O)(=O)Nc1ccc(F)c(C(=O)c2c[nH]c3ncc(-c4ccc(Cl)cc4)cc23)c1F [vemurafenib]
The description is as above. Put shortly: as §1
For the target LYRM4 (UniProt Q9HD34), the log2 fold change is inactive: -0.014.

Take MAGEB2 (UniProt O15479): the log2 fold change is inactive: -0.094.

As to MAP1A isoform 2 (UniProt P78559), the log2 fold change was inactive: -0.059.

As for MANBA (UniProt O00462), the log2 fold change was inactive: 0.041.

With MAP7D1 (UniProt Q3KQU3), the log2 fold change is inactive: -0.192.

Turning to MAEA (UniProt Q7L5Y9), the log2 fold change was inactive: -0.047.

As for MARCHF6 (UniProt O60337), the log2 fold change is inactive: -0.019.

For the target LRRC8A (UniProt Q8IWT6), the log2 fold change is inactive: -0.07.

Regarding MAGT1 (UniProt Q9H0U3), the log2 fold change is inactive: -0.064.

As to M6PR (UniProt P20645), the log2 fold change is inactive: -0.048.

Take LSM6 (UniProt P62312): the log2 fold change is inactive: 0.046.

Consider LSM2 (UniProt Q9Y333), for which the log2 fold change was inactive: 0.027.

Consider MACF1 (UniProt H3BQK9), for which the log2 fold change is inactive: -0.171.

As for LYZ (UniProt P61626), the log2 fold change was inactive: -0.142.

As for MAP2K4 isoform 2 (UniProt P45985), the log2 fold change is inactive: -0.001.

Consider LRRFIP2 (UniProt Q9Y608), for which the log2 fold change was inactive: -0.031.

As for MAN2C1 isoform 4 (UniProt Q9NTJ4), the log2 fold change was inactive: -0.043.

LRSAM1 (UniProt Q6UWE0): the log2 fold change was inactive: 0.05.

In the case of MAN2A1 (UniProt Q16706), the log2 fold change is inactive: -0.01.

As for LSM4 (UniProt Q9Y4Z0), the log2 fold change was inactive: 0.044.

Turning to MAPK1 (UniProt P28482), the log2 fold change is inactive: 0.012.

MACO1 (UniProt Q8N5G2): the log2 fold change was inactive: -0.032.

As to MAN2A2 (UniProt P49641), the log2 fold change was inactive: -0.041.

In the case of MALSU1 (UniProt Q96EH3), the log2 fold change was inactive: -0.014.

Turning to MANF (UniProt P55145), the log2 fold change is inactive: -0.021.

For MARCHF5 (UniProt Q9NX47), the log2 fold change is inactive: 0.034.

Turning to MAP7 isoform 7 (UniProt Q14244), the log2 fold change was inactive: -0.188.

Consider MAN1B1 (UniProt Q9UKM7), for which the log2 fold change was inactive: 0.028.

Take MAD2L1BP isoform 3 (UniProt Q15013): the log2 fold change was inactive: -0.025.

Regarding MAPRE1 (UniProt Q15691), the log2 fold change is inactive: 0.022.

With LSM3 (UniProt P62310), the log2 fold change is inactive: 0.039.

As for LYAR (UniProt Q9NX58), the log2 fold change is inactive: -0.193.

Take LSM7 (UniProt Q9UK45): the log2 fold change is inactive: -0.026.

Compound in another test: CCCS(=O)(=O)Nc1ccc(F)c(C(=O)c2c[nH]c3ncc(Cl)cc23)c1F
The test is described as above. Put shortly:
as §1
For LYRM4 (UniProt Q9HD34), the log2 fold change was inactive: 0.032.

Take MAGEB2 (UniProt O15479): the log2 fold change is inactive: 0.052.

On to MAP1A isoform 2 (UniProt P78559), for which the log2 fold change is inactive: -0.043.

For MANBA (UniProt O00462), the log2 fold change is inactive: -0.011.

For the target MAP7D1 (UniProt Q3KQU3), the log2 fold change is inactive: -0.04.

With MAEA (UniProt Q7L5Y9), the log2 fold change was inactive: 0.019.

As for MARCHF6 (UniProt O60337), the log2 fold change is inactive: 0.065.

Turning to LRRC8A (UniProt Q8IWT6), the log2 fold change is inactive: -0.007.

For MAGT1 (UniProt Q9H0U3), the log2 fold change was inactive: -0.004.

Turning to M6PR (UniProt P20645), the log2 fold change is inactive: -0.007.

On to LSM6 (UniProt P62312), for which the log2 fold change is inactive: 0.009.

Consider LSM2 (UniProt Q9Y333), for which the log2 fold change is inactive: 0.012.

Turning to MACF1 (UniProt H3BQK9), the log2 fold change was inactive: 0.093.

In the case of LYZ (UniProt P61626), the log2 fold change was inactive: -0.131.

As for MAP2K4 isoform 2 (UniProt P45985), the log2 fold change is inactive: 0.032.

LRRFIP2 (UniProt Q9Y608): the log2 fold change was inactive: -0.027.

Turning to MAN2C1 isoform 4 (UniProt Q9NTJ4), the log2 fold change is inactive: -0.054.

As for LRSAM1 (UniProt Q6UWE0), the log2 fold change is inactive: 0.02.

For MAN2A1 (UniProt Q16706), the log2 fold change is inactive: -0.01.

On to LSM4 (UniProt Q9Y4Z0), for which the log2 fold change was inactive: -0.03.

As to MAPK1 (UniProt P28482), the log2 fold change was inactive: 0.002.

For MACO1 (UniProt Q8N5G2), the log2 fold change was inactive: 0.056.

Regarding MAN2A2 (UniProt P49641), the log2 fold change was inactive: -0.047.

Regarding MALSU1 (UniProt Q96EH3), the log2 fold change was inactive: -0.018.

Turning to MANF (UniProt P55145), the log2 fold change is inactive: 0.014.

Turning to MARCHF5 (UniProt Q9NX47), the log2 fold change was inactive: 0.033.

Regarding MAP7 isoform 7 (UniProt Q14244), the log2 fold change was inactive: -0.104.

Take MAN1B1 (UniProt Q9UKM7): the log2 fold change was inactive: 0.035.

Consider MAD2L1BP isoform 3 (UniProt Q15013), for which the log2 fold change is inactive: 0.01.

As for MAPRE1 (UniProt Q15691), the log2 fold change is inactive: 0.025.

For LSM3 (UniProt P62310), the log2 fold change is inactive: -0.045.

Consider LYAR (UniProt Q9NX58), for which the log2 fold change is inactive: -0.087.

On to LSM7 (UniProt Q9UK45), for which the log2 fold change is inactive: -0.025.
